Reference: the supplement of paper PMC10849652
The other results are listed elsewhere or left out.

By UniProt entry, the sequences of proteins in these tests, tags left out. Where a name states a change or a piece, a line headed by the entry shows the natural chain unless it says otherwise.
UniProt Q8IX18: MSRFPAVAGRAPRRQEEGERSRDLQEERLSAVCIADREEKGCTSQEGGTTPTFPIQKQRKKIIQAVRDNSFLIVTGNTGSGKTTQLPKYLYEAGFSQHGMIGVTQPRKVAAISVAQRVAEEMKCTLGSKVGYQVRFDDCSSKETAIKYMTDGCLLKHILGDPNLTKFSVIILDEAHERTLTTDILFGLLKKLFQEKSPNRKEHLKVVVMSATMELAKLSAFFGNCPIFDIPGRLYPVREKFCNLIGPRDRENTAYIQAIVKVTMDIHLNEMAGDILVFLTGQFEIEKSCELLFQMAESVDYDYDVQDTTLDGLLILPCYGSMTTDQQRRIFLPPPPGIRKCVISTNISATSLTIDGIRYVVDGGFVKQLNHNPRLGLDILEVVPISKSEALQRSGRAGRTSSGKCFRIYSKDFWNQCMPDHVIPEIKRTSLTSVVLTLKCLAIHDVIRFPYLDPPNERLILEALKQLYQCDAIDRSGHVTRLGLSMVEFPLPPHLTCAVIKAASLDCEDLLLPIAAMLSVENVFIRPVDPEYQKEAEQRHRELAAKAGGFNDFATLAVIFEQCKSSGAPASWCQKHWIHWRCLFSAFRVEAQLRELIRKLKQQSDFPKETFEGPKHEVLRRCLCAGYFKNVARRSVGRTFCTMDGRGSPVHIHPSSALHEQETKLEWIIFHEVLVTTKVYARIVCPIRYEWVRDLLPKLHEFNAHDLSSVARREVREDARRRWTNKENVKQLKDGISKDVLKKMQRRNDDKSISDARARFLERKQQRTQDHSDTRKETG
UniProt Q9BZ29: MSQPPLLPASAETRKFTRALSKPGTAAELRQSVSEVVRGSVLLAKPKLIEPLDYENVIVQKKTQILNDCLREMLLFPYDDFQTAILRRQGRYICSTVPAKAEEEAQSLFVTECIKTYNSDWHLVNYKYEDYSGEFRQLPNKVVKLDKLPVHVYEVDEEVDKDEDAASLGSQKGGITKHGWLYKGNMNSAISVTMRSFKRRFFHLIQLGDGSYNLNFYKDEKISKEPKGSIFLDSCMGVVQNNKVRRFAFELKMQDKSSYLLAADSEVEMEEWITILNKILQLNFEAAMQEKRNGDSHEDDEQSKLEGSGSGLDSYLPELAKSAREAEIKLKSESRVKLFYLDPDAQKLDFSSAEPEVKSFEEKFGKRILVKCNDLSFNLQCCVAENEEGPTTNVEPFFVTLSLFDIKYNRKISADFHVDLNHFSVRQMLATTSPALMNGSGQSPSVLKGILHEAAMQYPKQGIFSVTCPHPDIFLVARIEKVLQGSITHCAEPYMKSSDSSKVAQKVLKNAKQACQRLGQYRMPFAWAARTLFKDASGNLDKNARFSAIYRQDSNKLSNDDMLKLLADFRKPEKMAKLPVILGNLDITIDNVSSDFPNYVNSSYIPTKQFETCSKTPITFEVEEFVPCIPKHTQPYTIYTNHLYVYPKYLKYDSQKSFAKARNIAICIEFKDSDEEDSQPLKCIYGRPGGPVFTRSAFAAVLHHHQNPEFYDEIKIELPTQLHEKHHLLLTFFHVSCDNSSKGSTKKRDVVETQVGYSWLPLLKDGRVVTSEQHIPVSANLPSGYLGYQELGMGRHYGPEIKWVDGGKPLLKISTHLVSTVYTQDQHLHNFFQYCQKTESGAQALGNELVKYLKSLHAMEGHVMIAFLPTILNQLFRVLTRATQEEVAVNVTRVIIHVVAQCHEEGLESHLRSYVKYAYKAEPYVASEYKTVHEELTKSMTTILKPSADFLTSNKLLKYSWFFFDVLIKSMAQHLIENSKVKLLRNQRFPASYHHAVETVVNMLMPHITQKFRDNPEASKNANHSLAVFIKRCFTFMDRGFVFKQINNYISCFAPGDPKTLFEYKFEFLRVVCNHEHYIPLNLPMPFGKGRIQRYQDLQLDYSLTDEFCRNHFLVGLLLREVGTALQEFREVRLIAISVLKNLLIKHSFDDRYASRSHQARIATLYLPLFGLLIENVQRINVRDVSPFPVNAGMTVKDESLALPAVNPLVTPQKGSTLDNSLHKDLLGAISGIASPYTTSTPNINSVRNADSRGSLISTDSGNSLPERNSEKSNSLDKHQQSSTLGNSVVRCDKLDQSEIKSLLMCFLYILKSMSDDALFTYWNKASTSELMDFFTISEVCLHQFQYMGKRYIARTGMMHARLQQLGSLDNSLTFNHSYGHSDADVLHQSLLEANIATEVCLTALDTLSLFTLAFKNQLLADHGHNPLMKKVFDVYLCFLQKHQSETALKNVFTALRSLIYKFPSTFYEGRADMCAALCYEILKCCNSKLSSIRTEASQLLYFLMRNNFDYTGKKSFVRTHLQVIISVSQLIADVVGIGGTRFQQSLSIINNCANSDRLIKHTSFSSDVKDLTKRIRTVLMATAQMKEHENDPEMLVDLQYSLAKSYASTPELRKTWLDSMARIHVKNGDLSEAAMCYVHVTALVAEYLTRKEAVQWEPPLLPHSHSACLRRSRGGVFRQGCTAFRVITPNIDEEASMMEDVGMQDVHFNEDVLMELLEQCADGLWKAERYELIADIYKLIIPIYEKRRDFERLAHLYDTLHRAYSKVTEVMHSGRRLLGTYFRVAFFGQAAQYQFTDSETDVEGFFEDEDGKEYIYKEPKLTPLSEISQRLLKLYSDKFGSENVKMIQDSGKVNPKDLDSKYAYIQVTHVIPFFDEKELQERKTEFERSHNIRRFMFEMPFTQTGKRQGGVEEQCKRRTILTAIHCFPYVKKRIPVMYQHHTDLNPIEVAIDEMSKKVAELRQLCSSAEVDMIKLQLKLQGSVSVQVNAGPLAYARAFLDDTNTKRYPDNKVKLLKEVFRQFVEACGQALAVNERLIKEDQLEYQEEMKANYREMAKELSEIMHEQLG
UniProt Q96KC8: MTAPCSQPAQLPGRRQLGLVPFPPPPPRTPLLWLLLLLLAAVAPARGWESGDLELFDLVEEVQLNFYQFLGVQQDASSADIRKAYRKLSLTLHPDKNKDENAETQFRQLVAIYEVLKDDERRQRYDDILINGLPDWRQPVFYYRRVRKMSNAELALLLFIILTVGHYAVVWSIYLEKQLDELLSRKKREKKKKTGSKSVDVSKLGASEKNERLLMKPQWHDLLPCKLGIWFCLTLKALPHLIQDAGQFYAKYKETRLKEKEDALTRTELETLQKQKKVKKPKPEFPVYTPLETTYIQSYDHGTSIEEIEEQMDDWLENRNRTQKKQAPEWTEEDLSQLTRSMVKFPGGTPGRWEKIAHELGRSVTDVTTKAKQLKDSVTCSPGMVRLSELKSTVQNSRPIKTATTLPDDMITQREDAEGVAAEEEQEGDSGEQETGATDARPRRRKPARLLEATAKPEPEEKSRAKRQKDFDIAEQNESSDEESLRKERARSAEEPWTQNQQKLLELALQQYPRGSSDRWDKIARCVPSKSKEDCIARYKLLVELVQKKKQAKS
UniProt P49366: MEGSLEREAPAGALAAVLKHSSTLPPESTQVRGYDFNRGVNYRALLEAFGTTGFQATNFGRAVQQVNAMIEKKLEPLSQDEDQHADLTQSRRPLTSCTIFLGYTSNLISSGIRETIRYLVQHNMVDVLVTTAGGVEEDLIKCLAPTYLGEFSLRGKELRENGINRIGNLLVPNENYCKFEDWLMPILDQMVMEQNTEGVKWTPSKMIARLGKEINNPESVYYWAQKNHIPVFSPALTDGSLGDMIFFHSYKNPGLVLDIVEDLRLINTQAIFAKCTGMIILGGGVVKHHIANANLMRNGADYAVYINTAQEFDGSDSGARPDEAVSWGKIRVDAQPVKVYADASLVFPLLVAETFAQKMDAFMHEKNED
UniProt Q99704: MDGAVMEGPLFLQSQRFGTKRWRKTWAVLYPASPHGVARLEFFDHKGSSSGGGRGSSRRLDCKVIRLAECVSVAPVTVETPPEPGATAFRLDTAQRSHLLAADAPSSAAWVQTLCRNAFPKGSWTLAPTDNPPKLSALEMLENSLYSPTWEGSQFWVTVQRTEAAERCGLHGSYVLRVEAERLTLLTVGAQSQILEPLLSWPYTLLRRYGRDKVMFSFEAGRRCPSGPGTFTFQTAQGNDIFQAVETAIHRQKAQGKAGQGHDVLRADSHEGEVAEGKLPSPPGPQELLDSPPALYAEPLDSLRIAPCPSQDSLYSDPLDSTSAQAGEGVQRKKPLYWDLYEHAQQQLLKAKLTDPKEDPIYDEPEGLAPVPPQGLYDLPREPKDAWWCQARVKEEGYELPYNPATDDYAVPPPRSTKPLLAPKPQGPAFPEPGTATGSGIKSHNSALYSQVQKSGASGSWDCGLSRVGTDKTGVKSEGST
UniProt P50570: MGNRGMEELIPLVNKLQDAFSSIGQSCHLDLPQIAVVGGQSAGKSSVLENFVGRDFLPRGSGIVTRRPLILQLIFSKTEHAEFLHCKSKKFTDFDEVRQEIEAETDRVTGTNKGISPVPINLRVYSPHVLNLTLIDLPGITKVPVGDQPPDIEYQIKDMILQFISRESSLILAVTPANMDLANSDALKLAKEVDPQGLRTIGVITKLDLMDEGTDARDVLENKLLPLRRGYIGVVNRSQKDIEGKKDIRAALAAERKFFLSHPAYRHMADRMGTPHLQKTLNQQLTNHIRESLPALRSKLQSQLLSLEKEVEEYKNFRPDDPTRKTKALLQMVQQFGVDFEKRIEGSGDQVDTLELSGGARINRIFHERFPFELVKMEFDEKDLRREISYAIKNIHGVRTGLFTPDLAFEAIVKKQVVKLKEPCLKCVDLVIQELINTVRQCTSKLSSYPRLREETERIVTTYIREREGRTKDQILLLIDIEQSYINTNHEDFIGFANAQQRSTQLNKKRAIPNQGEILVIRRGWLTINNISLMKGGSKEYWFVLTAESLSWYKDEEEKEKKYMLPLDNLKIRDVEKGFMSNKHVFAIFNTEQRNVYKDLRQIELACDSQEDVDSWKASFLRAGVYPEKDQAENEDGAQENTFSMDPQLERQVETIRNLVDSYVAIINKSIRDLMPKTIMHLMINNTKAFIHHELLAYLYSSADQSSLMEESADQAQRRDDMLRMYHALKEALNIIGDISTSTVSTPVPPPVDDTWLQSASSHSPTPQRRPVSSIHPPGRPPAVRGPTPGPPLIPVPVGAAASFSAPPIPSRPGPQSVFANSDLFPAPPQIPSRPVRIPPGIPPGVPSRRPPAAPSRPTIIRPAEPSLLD
UniProt Q99615: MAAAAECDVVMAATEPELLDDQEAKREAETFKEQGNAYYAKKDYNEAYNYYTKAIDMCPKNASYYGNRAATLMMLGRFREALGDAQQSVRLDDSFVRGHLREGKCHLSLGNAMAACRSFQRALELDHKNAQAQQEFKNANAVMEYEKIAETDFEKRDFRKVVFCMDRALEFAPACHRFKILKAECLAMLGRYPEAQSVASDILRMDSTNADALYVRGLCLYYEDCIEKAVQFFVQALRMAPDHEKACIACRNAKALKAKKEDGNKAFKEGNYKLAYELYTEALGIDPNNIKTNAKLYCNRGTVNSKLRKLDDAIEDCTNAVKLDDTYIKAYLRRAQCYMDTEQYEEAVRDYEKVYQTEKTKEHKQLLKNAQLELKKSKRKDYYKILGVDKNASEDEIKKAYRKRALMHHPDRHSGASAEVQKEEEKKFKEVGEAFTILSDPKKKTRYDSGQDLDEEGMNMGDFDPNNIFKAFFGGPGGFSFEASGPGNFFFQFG
UniProt Q9NPF5, whole entry, looked up: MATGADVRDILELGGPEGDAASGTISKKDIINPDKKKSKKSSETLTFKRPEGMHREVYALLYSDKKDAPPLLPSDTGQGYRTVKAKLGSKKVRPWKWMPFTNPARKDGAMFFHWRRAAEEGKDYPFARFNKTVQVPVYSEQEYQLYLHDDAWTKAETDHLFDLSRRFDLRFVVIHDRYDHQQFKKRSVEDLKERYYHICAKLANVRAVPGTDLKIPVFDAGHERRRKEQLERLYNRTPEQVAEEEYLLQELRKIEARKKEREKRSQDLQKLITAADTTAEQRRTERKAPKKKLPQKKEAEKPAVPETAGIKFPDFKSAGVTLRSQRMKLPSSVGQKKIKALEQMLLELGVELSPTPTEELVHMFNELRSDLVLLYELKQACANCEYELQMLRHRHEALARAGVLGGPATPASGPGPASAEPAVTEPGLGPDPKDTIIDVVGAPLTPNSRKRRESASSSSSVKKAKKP
UniProt O00115: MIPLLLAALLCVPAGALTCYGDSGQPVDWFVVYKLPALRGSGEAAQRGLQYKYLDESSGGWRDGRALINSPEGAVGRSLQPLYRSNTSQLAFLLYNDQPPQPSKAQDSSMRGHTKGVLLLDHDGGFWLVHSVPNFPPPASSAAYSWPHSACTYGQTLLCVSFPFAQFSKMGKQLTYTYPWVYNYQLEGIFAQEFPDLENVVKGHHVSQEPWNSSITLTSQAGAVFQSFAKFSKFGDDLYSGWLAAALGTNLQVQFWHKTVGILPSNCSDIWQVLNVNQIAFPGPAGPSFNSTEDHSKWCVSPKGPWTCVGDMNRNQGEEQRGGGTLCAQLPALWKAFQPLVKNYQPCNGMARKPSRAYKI

Tests used:
Assay in all cases: log2 fold change, soluble protein after heating vs DMSO (PISA); higher = thermal stabilisation; K562 lysate, 10 uM; active = over 0.2 and 3.5 SD of the protein, either way, in both replicates (recomputed)
lapatinib = compound: CS(=O)(=O)CCNCc1ccc(-c2ccc3ncnc(Nc4ccc(OCc5cccc(F)c5)c(Cl)c4)c3c2)o1 [lapatinib]
How it was run: (§1)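 K562 pellets were dounce-homogenised in PBS pH 7.4 with 1 mM MgCl2, and the crude extract at 1 mg/mL protein was treated with 10 μM compound for 30 min. Aliquots were heated for 3 min across 48°C-58°C, pooled, and brought to 0.5% NP-40 at 4°C; soluble protein was the supernatant after 21,000xg for 90 min. Soluble protein was quantified by TMTpro 16plex LC-MS/MS with channel sums equalised, and reported as log2 fold change in thermal stability against DMSO controls, with values from duplicates.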

pictilisib = compound: CS(=O)(=O)N1CCN(Cc2cc3nc(-c4cccc5[nH]ncc45)nc(N4CCOCC4)c3s2)CC1 [pictilisib]
How it was run: as §1

crizotinib = compound: C[C@@H](Oc1cc(-c2cnn(C3CCNCC3)c2)cnc1N)c1c(Cl)ccc(F)c1Cl [crizotinib]
How it was run: as §1

[1] = compound: C[C@H](C1=CC=C(C=C1)C(=O)NC2=C3C=CNC3=NC=C2)N
How it was run: as §1

duvelisib = compound: C[C@H](Nc1ncnc2nc[nH]c12)c1cc2cccc(Cl)c2c(=O)n1-c1ccccc1 [duvelisib]
How it was run: as §1

gandotinib = compound: Cc1cc(Nc2cc(CN3CCOCC3)c3nc(C)c(Cc4ccc(Cl)cc4F)n3n2)n[nH]1 [gandotinib]
How it was run: as §1

tozasertib = compound: Cc1cc(Nc2cc(N3CCN(C)CC3)nc(Sc3ccc(NC(=O)C4CC4)cc3)n2)n[nH]1 [tozasertib]
How it was run: as §1

doramapimod = compound: Cc1ccc(-n2nc(C(C)(C)C)cc2NC(=O)Nc2ccc(OCCN3CCOCC3)c3ccccc23)cc1 [doramapimod]
How it was run: as §1

bafetinib = compound: Cc1ccc(NC(=O)c2ccc(CN3CC[C@H](N(C)C)C3)c(C(F)(F)F)c2)cc1Nc1nccc(-c2cncnc2)n1 [bafetinib]
How it was run: as §1

[2] = compound: Cc1cccc(CC(=O)N2CCc3c2ccc(-c2cn(C)c4ncnc(N)c24)c3F)n1
How it was run: as §1

nilotinib = compound: Cc1cn(-c2cc(NC(=O)c3ccc(C)c(Nc4nccc(-c5cccnc5)n4)c3)cc(C(F)(F)F)c2)cn1 [nilotinib]
How it was run: as §1

[3] = compound: Cc1nc(Nc2n[nH]c3c2CN(C(=O)N[C@H](CN(C)C)c2ccccc2)C3(C)C)c2sccc2n1
How it was run: as §1

dasatinib = compound: Cc1nc(Nc2ncc(C(=O)Nc3c(C)cccc3Cl)s2)cc(N2CCN(CCO)CC2)n1 [dasatinib]
How it was run: as §1

[4] = compound: Cc1ncc(-c2ccnc(Nc3ccc(S(C)(=O)=O)cc3)n2)n1C(C)C
How it was run: as §1

[5] = compound: Cn1cc(-c2ccc3c(c2)CCN3C(=O)Cc2cccc(C(F)(F)F)c2)c2c(N)ncnc21
How it was run: as §1

quisinostat = compound: Cn1cc(CNCC2CCN(c3ncc(C(=O)NO)cn3)CC2)c2ccccc21 [quisinostat]
How it was run: as §1

tipifarnib = compound: Cn1cncc1[C@@](N)(c1ccc(Cl)cc1)c1ccc2c(c1)c(-c1cccc(Cl)c1)cc(=O)n2C [tipifarnib]
How it was run: as §1

[6] = compound: NC(=O)Nc1cc(-c2cccc(F)c2)sc1C(=O)N[C@H]1CCCNC1
How it was run: as §1

[7] = compound: NC(=O)c1cnc(N[C@@H]2CCCC[C@@H]2N)nc1Nc1cccc(-n2nccn2)c1
How it was run: as §1

[8] = compound: NC1(c2ccc(-c3nc4ccn5c(=O)[nH]nc5c4cc3-c3ccccc3)cc2)CCC1
How it was run: as §1

| Target | log2 fold change (lapatinib) | log2 fold change (pictilisib) | log2 fold change (crizotinib) | log2 fold change [1] | log2 fold change (duvelisib) | log2 fold change (gandotinib) | log2 fold change (tozasertib) | log2 fold change (doramapimod) | log2 fold change (bafetinib) | log2 fold change [2] | log2 fold change (nilotinib) | log2 fold change [3] | log2 fold change (dasatinib) | log2 fold change [4] | log2 fold change [5] | log2 fold change (quisinostat) | log2 fold change (tipifarnib) | log2 fold change [6] | log2 fold change [7] | log2 fold change [8] |
| --- | --- | --- | --- | --- | --- | --- | --- | --- | --- | --- | --- | --- | --- | --- | --- | --- | --- | --- | --- | --- |
| DHX40 (UniProt Q8IX18) | inactive: -0.051 | inactive: -0.038 | inactive: 0.029 | inactive: -0.01 | inactive: 0.007 | inactive: 0.009 | inactive: 0.023 | inactive: 0 | inactive: -0.045 | inactive: 0.081 | inactive: -0.035 | inactive: 0.034 | inactive: 0.019 | inactive: 0.009 | inactive: 0.021 | inactive: 0.012 | inactive: 0.046 | inactive: 0.021 | inactive: 0.008 | inactive: -0.007 |
| DOCK9 isoform 4 (UniProt Q9BZ29) | inactive: 0.007 | inactive: 0.02 | inactive: -0.006 | inactive: -0.066 | inactive: -0.039 | inactive: -0.042 | inactive: 0.048 | inactive: 0.01 | inactive: -0.033 | inactive: 0.013 | inactive: 0.011 | inactive: -0.036 | inactive: 0.029 | inactive: 0.015 | inactive: 0.023 | inactive: -0.039 | inactive: 0.035 | inactive: 0.028 | inactive: 0.007 | inactive: -0.004 |
| DICER1 (UniProt Q9UPY3) | inactive: -0.02 | inactive: -0.071 | inactive: -0.075 | inactive: -0.075 | inactive: -0.05 | inactive: 0.02 | inactive: 0.035 | inactive: 0.039 | inactive: -0.11 | inactive: 0.084 | inactive: 0.014 | inactive: -0.014 | inactive: -0.005 | inactive: 0.045 | inactive: -0.03 | inactive: -0.072 | inactive: 0 | inactive: 0.051 | inactive: 0.045 | inactive: -0.068 |
| DMXL1 (UniProt Q9Y485) | inactive: -0.003 | inactive: -0.014 | inactive: -0.021 | inactive: 0.001 | inactive: 0.007 | inactive: -0.028 | inactive: 0.002 | inactive: 0.039 | inactive: -0.01 | inactive: 0.026 | inactive: 0.03 | inactive: 0.006 | inactive: -0.017 | inactive: -0.005 | inactive: 0.025 | inactive: -0.009 | inactive: -0.015 | inactive: 0.01 | inactive: 0.014 | inactive: 0.034 |
| DNAJC1 (UniProt Q96KC8) | inactive: -0.057 | inactive: 0.013 | inactive: -0.086 | inactive: 0.033 | inactive: -0.046 | active: -0.262 | inactive: 0.019 | inactive: -0.117 | inactive: 0.001 | inactive: -0.064 | inactive: -0.03 | inactive: 0 | inactive: -0.09 | inactive: -0.012 | inactive: 0.016 | inactive: 0.04 | inactive: 0.004 | inactive: 0.026 | inactive: -0.028 | inactive: 0.028 |
| DHPS (UniProt P49366) | inactive: -0.013 | inactive: -0.033 | inactive: -0.063 | inactive: -0.042 | inactive: 0.006 | inactive: 0.045 | inactive: -0.013 | inactive: 0.023 | inactive: 0.052 | inactive: 0.022 | inactive: 0.019 | inactive: 0.002 | inactive: 0.017 | inactive: 0.028 | inactive: -0.02 | inactive: -0.08 | inactive: 0.021 | inactive: 0 | inactive: 0.033 | inactive: 0.011 |
| DOK1 (UniProt Q99704) | inactive: 0.01 | inactive: -0.026 | inactive: 0.007 | inactive: -0.056 | inactive: -0.002 | inactive: 0.042 | inactive: 0.008 | inactive: 0.044 | inactive: -0.006 | inactive: -0.001 | inactive: -0.019 | inactive: 0.05 | inactive: 0.014 | inactive: -0.103 | inactive: 0.023 | inactive: -0.032 | inactive: 0.048 | inactive: 0.07 | inactive: -0.055 | inactive: 0.018 |
| DHRS11 (UniProt Q6UWP2) | inactive: -0.017 | inactive: 0.014 | inactive: 0.024 | inactive: -0.035 | inactive: 0.024 | inactive: -0.007 | inactive: 0.028 | inactive: -0.032 | inactive: -0.051 | inactive: -0.02 | inactive: 0.058 | inactive: 0.017 | inactive: -0.018 | inactive: 0.008 | inactive: 0.03 | inactive: 0.024 | inactive: 0.002 | inactive: 0.037 | inactive: 0.002 | inactive: 0 |
| DIS3 (UniProt Q9Y2L1) | inactive: -0.018 | inactive: -0.016 | inactive: -0.012 | inactive: -0.003 | inactive: 0.001 | inactive: -0.038 | inactive: -0.003 | inactive: 0.024 | inactive: -0.012 | inactive: 0.01 | inactive: -0.006 | inactive: 0.008 | inactive: -0.011 | inactive: 0.03 | inactive: 0.018 | inactive: -0.008 | inactive: 0.044 | inactive: 0.015 | inactive: -0.007 | inactive: -0.008 |
| DKC1 (UniProt O60832) | inactive: -0.039 | inactive: -0.025 | inactive: -0.002 | inactive: -0.035 | inactive: -0.002 | inactive: -0.007 | inactive: -0.021 | inactive: 0.05 | inactive: 0.006 | inactive: 0.019 | inactive: -0.024 | inactive: -0.008 | inactive: -0.027 | inactive: -0.003 | inactive: -0.014 | inactive: -0.02 | inactive: 0.012 | inactive: 0.012 | inactive: 0.004 | inactive: -0.026 |
| DNM2 (UniProt P50570) | inactive: -0.003 | inactive: 0.022 | inactive: -0.013 | inactive: 0.021 | inactive: -0.007 | inactive: -0.076 | inactive: 0.001 | inactive: 0.033 | inactive: -0.011 | inactive: 0.035 | inactive: 0 | inactive: -0.015 | inactive: -0.045 | inactive: -0.016 | inactive: 0.028 | inactive: 0.016 | inactive: 0.011 | inactive: 0.034 | inactive: 0.037 | inactive: 0.009 |
| DHRS7 (UniProt Q9Y394) | inactive: 0.01 | inactive: -0.039 | inactive: -0.005 | inactive: -0.088 | inactive: 0.013 | inactive: 0.057 | inactive: -0.013 | inactive: 0.012 | inactive: 0.035 | inactive: 0.027 | inactive: 0.012 | inactive: -0.012 | inactive: -0.055 | inactive: -0.014 | inactive: -0.001 | inactive: -0.042 | inactive: 0.033 | inactive: -0.007 | inactive: 0.015 | inactive: -0.047 |
| DNAJC7 (UniProt Q99615) | inactive: 0.078 | inactive: 0.065 | inactive: -0.045 | inactive: -0.017 | inactive: -0.041 | inactive: 0.076 | inactive: -0.005 | inactive: 0.202 | inactive: -0.041 | inactive: -0.03 | inactive: -0.001 | inactive: 0.008 | inactive: -0.028 | inactive: -0.015 | inactive: 0.011 | inactive: -0.051 | inactive: -0.056 | inactive: -0.021 | inactive: 0.003 | inactive: 0.025 |
| DNAJC11 (UniProt Q9NVH1) | inactive: -0.024 | inactive: 0.001 | inactive: -0.003 | inactive: 0.009 | inactive: 0.01 | inactive: -0.051 | inactive: 0.034 | inactive: -0.019 | inactive: 0.009 | inactive: 0.03 | inactive: 0.005 | inactive: -0.018 | inactive: -0.018 | inactive: -0.015 | inactive: 0.011 | inactive: 0.039 | inactive: 0.015 | inactive: -0.02 | inactive: 0.013 | inactive: -0.019 |
| DMAP1 (UniProt Q9NPF5) | inactive: 0.059 | inactive: -0.041 | inactive: -0.074 | inactive: -0.034 | inactive: 0.063 | inactive: -0.043 | inactive: 0.061 | inactive: 0.043 | inactive: -0.211 | inactive: -0.003 | inactive: -0.007 | inactive: 0.117 | inactive: -0.019 | inactive: 0.009 | inactive: 0.046 | inactive: -0.087 | inactive: -0.095 | inactive: 0.099 | inactive: 0.007 | inactive: 0.004 |
| DNASE2 (UniProt O00115) | inactive: 0.006 | inactive: -0.021 | inactive: 0.032 | inactive: -0.034 | inactive: -0.077 | inactive: 0.092 | inactive: 0.019 | inactive: 0.053 | inactive: 0.002 | inactive: -0.016 | inactive: 0.006 | inactive: 0.024 | inactive: 0.094 | inactive: 0.028 | inactive: -0.001 | inactive: 0.094 | inactive: 0.019 | inactive: -0.069 | inactive: -0.034 | inactive: 0.028 |

In a second layout: entries from further up
Target	log2 fold change (lapatinib)	log2 fold change (pictilisib)	log2 fold change (crizotinib)	log2 fold change [1]	log2 fold change (duvelisib)	log2 fold change (gandotinib)	log2 fold change (tozasertib)	log2 fold change (doramapimod)	log2 fold change (bafetinib)	log2 fold change [2]	log2 fold change (nilotinib)	log2 fold change [3]	log2 fold change (dasatinib)	log2 fold change [4]	log2 fold change [5]	log2 fold change (quisinostat)	log2 fold change (tipifarnib)	log2 fold change [6]	log2 fold change [7]	log2 fold change [8]
DNM2 (UniProt P50570)	inactive: -0.003	inactive: 0.022	inactive: -0.013	inactive: 0.021	inactive: -0.007	inactive: -0.076	inactive: 0.001	inactive: 0.033	inactive: -0.011	inactive: 0.035	inactive: 0	inactive: -0.015	inactive: -0.045	inactive: -0.016	inactive: 0.028	inactive: 0.016	inactive: 0.011	inactive: 0.034	inactive: 0.037	inactive: 0.009
DHRS7 (UniProt Q9Y394)	inactive: 0.01	inactive: -0.039	inactive: -0.005	inactive: -0.088	inactive: 0.013	inactive: 0.057	inactive: -0.013	inactive: 0.012	inactive: 0.035	inactive: 0.027	inactive: 0.012	inactive: -0.012	inactive: -0.055	inactive: -0.014	inactive: -0.001	inactive: -0.042	inactive: 0.033	inactive: -0.007	inactive: 0.015	inactive: -0.047
